# Test results reported in the supplement of paper PMC8728848.
# The other results are listed elsewhere or left out.
# What was measured:
# Experiment in all cases: glycan array binding signal (z-score within array); higher = stronger binding
# Conditions in all cases: glycan notation: IUPAC condensed, linker removed
# Gal3S(b1-4)Glc = target: Gal3S(b1-4)Glc
# Method in brief: (§1)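 Glycan array data were curated from 3228 arrays in the Consortium for Functional Glycomics database and kept only where the protein sequence was available. Glycan names were converted to IUPAC-condensed notation, and columns mapping to the same glycan were averaged. The binding signal is a within-array Z-score, averaged across arrays of the same protein sequence at different concentrations or buffers and across linkers. Negative Z-scores can be read as non-binding.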
# Gal3S(b1-4)Glc6S = target: Gal3S(b1-4)Glc6S
# Method in brief: as §1
# Gal3S(b1-4)GlcNAc = target: Gal3S(b1-4)GlcNAc
# Method in brief: as §1
# [1] = target: Gal3S(b1-4)[Fuc(a1-3)]Glc6S
# Method in brief: as §1
# [2] = target: Gal3S(b1-4)[Fuc(a1-3)]GlcNAc
# Method in brief: as §1
# [3] = target: Gal3S(b1-4)[Fuc(a1-3)]GlcNAc6S
# Method in brief: as §1
# Gal3S4S(b1-4)GlcNAc = target: Gal3S4S(b1-4)GlcNAc
# Method in brief: as §1
# Gal3S6S(b1-4)GlcNAc = target: Gal3S6S(b1-4)GlcNAc
# Method in brief: as §1
# Gal3S6S(b1-4)GlcNAc6S = target: Gal3S6S(b1-4)GlcNAc6S
# Method in brief: as §1
# Gal4S(b1-4)GlcNAc = target: Gal4S(b1-4)GlcNAc
# Method in brief: as §1
# Gal4S6S(b1-4)GlcNAc = target: Gal4S6S(b1-4)GlcNAc
# Method in brief: as §1
# Gal6P(b1-4)GlcNAc = target: Gal6P(b1-4)GlcNAc
# Method in brief: as §1
# Gal6S(b1-3)GlcNAc = target: Gal6S(b1-3)GlcNAc
# Method in brief: as §1
# Gal6S(b1-3)GlcNAc6S = target: Gal6S(b1-3)GlcNAc6S
# Method in brief: as §1
# Gal6S(b1-4)Glc = target: Gal6S(b1-4)Glc
# Method in brief: as §1
# Gal6S(b1-4)Glc6S = target: Gal6S(b1-4)Glc6S
# Method in brief: as §1
# Gal6S(b1-4)GlcNAc = target: Gal6S(b1-4)GlcNAc
# Method in brief: as §1
# Gal6S(b1-4)GlcNAc6S = target: Gal6S(b1-4)GlcNAc6S
# Method in brief: as §1
# GalNAc(a1-3)Gal = target: GalNAc(a1-3)Gal
# Method in brief: as §1
# GalNAc(a1-3)GalNAc = target: GalNAc(a1-3)GalNAc
# Method in brief: as §1
# [4] = target: GalNAc(a1-3)GalNAc(b1-3)Gal(a1-4)Gal(b1-4)Glc
# Method in brief: as §1
# [5] = target: GalNAc(a1-3)GalNAc(b1-3)Gal(a1-4)Gal(b1-4)GlcNAc
# Method in brief: as §1
# GalNAc(b1-3)Gal = target: GalNAc(b1-3)Gal
# Method in brief: as §1
# [6] = target: GalNAc(b1-3)Gal(a1-4)Gal(b1-4)GlcNAc
# Method in brief: as §1
# [7] = target: GalNAc(b1-3)Gal(a1-4)Gal(b1-4)GlcNAc(b1-3)Gal(b1-4)Glc
# Method in brief: as §1
# [8] = target: GalNAc(b1-3)Gal(a1-6)Gal(b1-4)Glc
# Method in brief: as §1
# GalNAc(b1-3)GalNAc = target: GalNAc(b1-3)GalNAc
# Method in brief: as §1
# GalNAc(b1-3)GlcNAc = target: GalNAc(b1-3)GlcNAc
# Method in brief: as §1
# GalNAc(b1-4)Gal(b1-4)Glc = target: GalNAc(b1-4)Gal(b1-4)Glc
# Method in brief: as §1
# GalNAc(b1-4)GlcNAc = target: GalNAc(b1-4)GlcNAc
# Method in brief: as §1
binder,measurement,setting,value
PX14343F-bfa-562-20-562 (Bacteroides fragilis) (protein) CDDFLDSFPQDTVTNENFWKSKEDADKVLVDIYASLLPKDAIFFDEAMSDNAYLVWDWWGGAQQVANGSYTTSGEIPTNRWNGSYEVIRKCWFLLEGIEKIEDISEQDKNKIIGETYFMLAYNYYVLTSYFGDVPLVTKTLAIPESKQLVRTPKAEVVDYAINKLKEAAVMLEGLSQEKGRVTADACRFLIARMYLYNGDYSNVLETVKLLEGKYQLYREGDTPYEDLFSGVAENSCEVILSVVCDKRVGEIYTSHGGNGIMLLKGITGEDPYRGVTPSGSLVDAYPMADGRLIHEAGSSYDPKKPYEGRDPRFYQSIVYPTGQIKYLDVETGTVKERLYDPEDPTTVPEHQYNYSQPSATGYMWNKYIDYSVYAMNSVWDCTNDIIVFRYADVLLMKAEALLQTKGESAKEEVCNLIDQLRDRCSCGRVHRENYNSKDELMELLKNERRIELANEGLRYMDLIRWKDAEKNTIVTGVGLTGQMYGAYMRKDGVGKDDKTVDVDNTPRRYIETRYFNASKGYLFPIPQKERDLNPNLTQNPNW,glycan array binding signal (z-score),Gal3S(b1-4)Glc,-0.546
same,glycan array binding signal (z-score),Gal3S(b1-4)Glc6S,-0.513
same,glycan array binding signal (z-score),Gal3S(b1-4)GlcNAc,0.086
same,glycan array binding signal (z-score),[1],1.19
same,glycan array binding signal (z-score),[2],0.472
same,glycan array binding signal (z-score),[3],0.032
same,glycan array binding signal (z-score),Gal3S4S(b1-4)GlcNAc,0.242
same,glycan array binding signal (z-score),Gal3S6S(b1-4)GlcNAc,-0.271
same,glycan array binding signal (z-score),Gal3S6S(b1-4)GlcNAc6S,0.275
same,glycan array binding signal (z-score),Gal4S(b1-4)GlcNAc,-0.2
same,glycan array binding signal (z-score),Gal4S6S(b1-4)GlcNAc,-0.533
same,glycan array binding signal (z-score),Gal6P(b1-4)GlcNAc,-0.538
same,glycan array binding signal (z-score),Gal6S(b1-3)GlcNAc,-0.449
same,glycan array binding signal (z-score),Gal6S(b1-3)GlcNAc6S,-0.301
same,glycan array binding signal (z-score),Gal6S(b1-4)Glc,-0.233
same,glycan array binding signal (z-score),Gal6S(b1-4)Glc6S,1.31
same,glycan array binding signal (z-score),Gal6S(b1-4)GlcNAc,0.658
same,glycan array binding signal (z-score),Gal6S(b1-4)GlcNAc6S,0.35
same,glycan array binding signal (z-score),GalNAc(a1-3)Gal,-0.48
same,glycan array binding signal (z-score),GalNAc(a1-3)GalNAc,0.306
same,glycan array binding signal (z-score),[4],-0.145
same,glycan array binding signal (z-score),[5],0.154
same,glycan array binding signal (z-score),GalNAc(b1-3)Gal,-0.381
same,glycan array binding signal (z-score),[6],0.292
same,glycan array binding signal (z-score),[7],0.676
same,glycan array binding signal (z-score),[8],-0.256
same,glycan array binding signal (z-score),GalNAc(b1-3)GalNAc,-0.415
same,glycan array binding signal (z-score),GalNAc(b1-3)GlcNAc,-0.444
same,glycan array binding signal (z-score),GalNAc(b1-4)Gal(b1-4)Glc,0.248
same,glycan array binding signal (z-score),GalNAc(b1-4)GlcNAc,0.305

# Rewritten tab-delimited: entries from further up
binder	measurement	setting	value
PX14343F-bfa-562-20-562 (Bacteroides fragilis) (protein) CDDFLDSFPQDTVTNENFWKSKEDADKVLVDIYASLLPKDAIFFDEAMSDNAYLVWDWWGGAQQVANGSYTTSGEIPTNRWNGSYEVIRKCWFLLEGIEKIEDISEQDKNKIIGETYFMLAYNYYVLTSYFGDVPLVTKTLAIPESKQLVRTPKAEVVDYAINKLKEAAVMLEGLSQEKGRVTADACRFLIARMYLYNGDYSNVLETVKLLEGKYQLYREGDTPYEDLFSGVAENSCEVILSVVCDKRVGEIYTSHGGNGIMLLKGITGEDPYRGVTPSGSLVDAYPMADGRLIHEAGSSYDPKKPYEGRDPRFYQSIVYPTGQIKYLDVETGTVKERLYDPEDPTTVPEHQYNYSQPSATGYMWNKYIDYSVYAMNSVWDCTNDIIVFRYADVLLMKAEALLQTKGESAKEEVCNLIDQLRDRCSCGRVHRENYNSKDELMELLKNERRIELANEGLRYMDLIRWKDAEKNTIVTGVGLTGQMYGAYMRKDGVGKDDKTVDVDNTPRRYIETRYFNASKGYLFPIPQKERDLNPNLTQNPNW	glycan array binding signal (z-score)	Gal6P(b1-4)GlcNAc	-0.538
same	glycan array binding signal (z-score)	Gal6S(b1-3)GlcNAc	-0.449
same	glycan array binding signal (z-score)	Gal6S(b1-3)GlcNAc6S	-0.301
same	glycan array binding signal (z-score)	Gal6S(b1-4)Glc	-0.233
same	glycan array binding signal (z-score)	Gal6S(b1-4)Glc6S	1.31
same	glycan array binding signal (z-score)	Gal6S(b1-4)GlcNAc	0.658
same	glycan array binding signal (z-score)	Gal6S(b1-4)GlcNAc6S	0.35
